Assay results from PubChem BioAssay (NCATS).
The shares of active, inactive and inconclusive entries below differ from those in the screen. Potencies beside an inconclusive call are fits to weak or partial responses and may not hold up. Activity calls are given as the source filed them. Calls come from the whole dose curve; as a rule, active = well fitted cell-killing curve with a large enough effect; inconclusive = small, poorly fitted or top-dose-only effect, or effect the other way; inactive = no such curve, though single readings can be large or run the other way.

Legend:
[1] = Quantitative High-Throughput drug screen in 47 multiple myeloma cell lines against the NCATS MIPE library collection: MM1R_ATCC cell viability assay (AID 1918981); note: nearly all actives have a fitted effect of over 35% in size
Summary of the method: (§1)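 Inhibition of viability over 48 h was scored by ATP content (CellTiter-Glo) in 500-cell wells. Zero and full viability were defined by media-only and DMSO-only wells.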

[2] = Quantitative High-Throughput drug screen in 47 multiple myeloma cell lines against the NCATS MIPE library collection: LP1_DSMZ cell viability assay (AID 1918982); conditions: LP1 myeloma viability, CellTiter-Glo ATP luminescence, 48 h; viability (% of control): at 45.8 µM (top of the series); note: nearly all actives have a fitted effect of over 35% in size
Summary of the method: as §1

[3] = Quantitative High-Throughput drug screen in 47 multiple myeloma cell lines against the NCATS MIPE library collection: KMS28PE_JCRB cell viability assay (AID 1918983); note: nearly all actives have a fitted effect of over 35% in size
Summary of the method: as §1

[4] = Quantitative High-Throughput drug screen in 47 multiple myeloma cell lines against the NCATS MIPE library collection: L363_DSMZ cell viability assay (AID 1918984); conditions: L363 myeloma viability, CellTiter-Glo ATP luminescence, 48 h; viability (% of control): at 45.8 µM (top of the series); note: nearly all actives have a fitted effect of over 40% in size
Summary of the method: as §1

[5] = Quantitative High-Throughput drug screen in 47 multiple myeloma cell lines against the NCATS MIPE library collection: KMS34_JCRB cell viability assay (AID 1918985); conditions: KMS34 myeloma viability, CellTiter-Glo ATP luminescence, 48 h; viability, percent of control: at 45.8 µM (top of the series); note: nearly all actives have a fitted effect of over 40% in size;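 for viability, percent of control: 100% = DMSO-only wells and 0% = media-only wells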
Summary of the method: as §1

[6] = Quantitative High-Throughput drug screen in 47 multiple myeloma cell lines against the NCATS MIPE library collection: OCIMY7_PLB cell viability assay (AID 1918987); conditions: OCI-MY7 myeloma viability, CellTiter-Glo ATP, 48 h; viability (% of DMSO): at 45.8 µM (top of the series); note: nearly all actives have a fitted effect of over 65% in size
Summary of the method: as §1

[7] = Quantitative High-Throughput drug screen in 47 multiple myeloma cell lines against the NCATS MIPE library collection: OCIMY5_PLB cell viability assay (AID 1918988); conditions: OCI-MY5 myeloma viability, ATP luminescence, 48 h; viability, % of control: at 45.8 µM (top of the series); note: nearly all actives have a fitted effect of over 65% in size;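 for viability, % of control: 100% = DMSO-treated wells and 0% = wells with media alone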
Summary of the method: as §1

[8] = Quantitative High-Throughput drug screen in 47 multiple myeloma cell lines against the NCATS MIPE library collection: SKMM1_PLB cell viability assay (AID 1919863); conditions: SKMM1 myeloma viability, CellTiter-Glo ATP, 48 h; viability: stronger effect = lower value; note: nearly all actives have a fitted effect of over 35% in size
Summary of the method: as §1

[9] = Quantitative High-Throughput drug screen in 47 multiple myeloma cell lines against the NCATS MIPE library collection: OPM1_PLB cell viability assay (AID 1918989); conditions: CellTiter-Glo, 48 h; viability (% of control): at 45.8 µM (top of the series); note: nearly all actives have a fitted effect of over 40% in size;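 for viability (% of control): 100% = DMSO-only wells and 0% = media-only wells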
Summary of the method: as §1

[10] = Quantitative High-Throughput drug screen in 47 multiple myeloma cell lines against the NCATS MIPE library collection: U266_ATCC cell viability assay (AID 1919864); note: nearly all actives have a fitted effect of over 35% in size
Summary of the method: as §1
Potency is the fitted concentration of half-maximal effect.

Cc1ccccc1C(C(=O)NC1CCCCC1)N(C(=O)Cn1ccnc1C)c1cccc(F)c1 (centres undefined)
inconclusive: Potency [1] 33.2 µM [cytotoxic, single point] | Potency [3] 26.4 µM [cytotoxic, partial curve, poor fit] | Potency [4] 1.48 µM [cytotoxic, full curve, poor fit] | Potency [6] 0.935 µM [cytotoxic, full curve, poor fit]
active: Potency [2] 13.2 µM | Potency [5] 20.9 µM

CC(C)c1ccc2c(c1)c(SC(C)(C)C)c(CC(C)(C)C(=O)O)n2Cc1ccc(Cl)cc1
inconclusive: Potency [1] 20.9 µM [cytotoxic, partial curve, poor fit] | Potency [2] 20.9 µM [cytotoxic, partial curve] | Potency [3] 18.7 µM [cytotoxic, single point] | Potency [4] 0.0296 µM [cytotoxic, full curve, poor fit] | Potency [5] 23.5 µM [cytotoxic, single point] | Potency [7] 29.6 µM [cytotoxic, partial curve, poor fit] | Potency [8] 52.6 µM [cytotoxic, partial curve, poor fit]

CCC(CC)[C@H](NC(C)=O)[C@@H]1[C@H](O)[C@@H](C(=O)O)C[C@@H]1N=C(N)N
inactive: Potency [2] | Potency [3] | Potency [4] | Potency [5]
inconclusive: Potency [1] 0.0332 µM [rising, full curve, poor fit] | Potency [6] 4.18 µM [cytotoxic, partial curve, poor fit] | Potency [7] 1.66 µM [rising, partial curve, poor fit] | Potency [8] 0.0042 µM [rising, full curve, poor fit]

O=c1c(-c2ccc(O)cc2)coc2cc(O)ccc12
active: Potency [7] 14.8 µM
inactive: Potency [2] | Potency [5] | Potency [6] | Potency [9]
inconclusive: Potency [1] 26.4 µM [cytotoxic, single point] | Potency [3] 1.87 µM [cytotoxic, partial curve, poor fit] | Potency [4] 18.7 µM [cytotoxic, partial curve, poor fit] | Potency [8] 10.5 µM [cytotoxic, partial curve, poor fit]

CC(C(=O)O)c1ccc(-c2ccccc2)c(F)c1 (centres undefined)
inconclusive: Potency [4] 8.33 µM [cytotoxic, partial curve, poor fit] | Potency [7] 33.2 µM [cytotoxic, partial curve, poor fit]
inactive: Potency [1] | Potency [2] | Potency [3] | Potency [5] | viability [8] 102%
active: Potency [10] 20.9 µM

C[C@@H]1CN(Cc2ccc(F)cc2)[C@@H](C)CN1C(=O)c1cc2c(C(=O)C(=O)N(C)C)cn(C)c2cc1Cl
inconclusive: Potency [1] 23.5 µM [cytotoxic, partial curve] | Potency [2] 23.5 µM [cytotoxic, single point] | Potency [3] 37.2 µM [cytotoxic, single point] | Potency [4] 29.6 µM [cytotoxic, single point] | Potency [5] 0.118 µM [cytotoxic, full curve, poor fit] | Potency [7] 11.8 µM [cytotoxic, partial curve, poor fit] | Potency [8] 37.2 µM [cytotoxic, single point] | Potency [10] 18.7 µM [cytotoxic, partial curve]

Quoted at random: 2 records from the list
C[C@@H]1CN(Cc2ccc(F)cc2)[C@@H](C)CN1C(=O)c1cc2c(C(=O)C(=O)N(C)C)cn(C)c2cc1Cl
inconclusive: Potency [1] 23.5 µM [cytotoxic, partial curve] | Potency [2] 23.5 µM [cytotoxic, single point] | Potency [3] 37.2 µM [cytotoxic, single point] | Potency [4] 29.6 µM [cytotoxic, single point] | Potency [5] 0.118 µM [cytotoxic, full curve, poor fit] | Potency [7] 11.8 µM [cytotoxic, partial curve, poor fit] | Potency [8] 37.2 µM [cytotoxic, single point] | Potency [10] 18.7 µM [cytotoxic, partial curve]

CC(C)c1ccc2c(c1)c(SC(C)(C)C)c(CC(C)(C)C(=O)O)n2Cc1ccc(Cl)cc1
inconclusive: Potency [1] 20.9 µM [cytotoxic, partial curve, poor fit] | Potency [2] 20.9 µM [cytotoxic, partial curve] | Potency [3] 18.7 µM [cytotoxic, single point] | Potency [4] 0.0296 µM [cytotoxic, full curve, poor fit] | Potency [5] 23.5 µM [cytotoxic, single point] | Potency [7] 29.6 µM [cytotoxic, partial curve, poor fit] | Potency [8] 52.6 µM [cytotoxic, partial curve, poor fit]

(further entries)

NNc1nncc2ccccc12
inconclusive: Potency [7] 8.33 µM [rising, single point]
inactive: Potency [1] | Potency [2] | Potency [3] | Potency [4] | Potency [5] | Potency [6] | viability [8] 116%

O=c1c(O)c(-c2ccc(O)cc2)oc2cc(O)cc(O)c12
inconclusive: Potency [1] 26.4 µM [cytotoxic, single point] | Potency [2] 41.8 µM [cytotoxic, single point] | Potency [3] 5.9 µM [rising, partial curve] | Potency [4] 18.7 µM [cytotoxic, partial curve] | Potency [9] 18.7 µM [cytotoxic, partial curve, poor fit] | Potency [8] 2.64 µM [rising, full curve]
inactive: Potency [5]
active: Potency [6] 14.8 µM

COc1cc(Oc2ccnc3cc(OC)c(OC)cc23)ccc1NC(=O)NC(C)c1nccs1 (centres undefined)
inconclusive: Potency [2] 20.9 µM [cytotoxic, partial curve, poor fit] | Potency [3] 0.001 µM [cytotoxic] | Potency [4] 1.18 µM [cytotoxic, full curve, poor fit] | Potency [5] 26.4 µM [cytotoxic, single point] | Potency [6] 9.35 µM [cytotoxic, partial curve, poor fit] | Potency [8] 13.2 µM [cytotoxic, partial curve, poor fit]
active: Potency [1] 18.7 µM

O=c1c(-c2ccc(O)cc2)coc2cc(O)cc(O)c12
inconclusive: Potency [1] 16.6 µM [cytotoxic, partial curve, poor fit] | Potency [2] 0.0074 µM [cytotoxic, full curve, poor fit] | Potency [3] 11.8 µM [cytotoxic, single point] | Potency [4] 9.35 µM [cytotoxic, partial curve, poor fit] | Potency [5] 33.2 µM [cytotoxic, partial curve, poor fit] | Potency [6] 18.7 µM [cytotoxic, partial curve, poor fit] | Potency [7] 83.3 µM [cytotoxic, partial curve, poor fit] | Potency [8] 4.69 µM [cytotoxic, full curve, poor fit] | Potency [10] 0.0021 µM [rising, full curve, poor fit]
inactive: Potency [9]

O=C(CCc1ccc(O)cc1)c1c(O)cc(O)cc1O[C@@H]1O[C@H](CO)[C@H](O)[C@H](O)[C@H]1O
inconclusive: Potency [3] 10.5 µM [cytotoxic, partial curve, poor fit] | Potency [5] 4.18 µM [cytotoxic, full curve, poor fit] | Potency [6] 20.9 µM [cytotoxic, partial curve, poor fit]
inactive: Potency [1] | Potency [2] | Potency [4] | Potency [7] | viability [8] 101% | Potency [10]

CC1=C(C)C(=O)C(C(CCCCCC(=O)O)c2ccccc2)=C(C)C1=O (centres undefined)
active: Potency [9] 14.8 µM
inconclusive: Potency [1] 0.0047 µM [rising, full curve] | Potency [2] 0.0012 µM [rising, full curve, poor fit] | Potency [4] 1.18 µM [rising, full curve, poor fit] | Potency [5] 26.4 µM [cytotoxic, single point] | Potency [6] 5.26 µM [cytotoxic, full curve, poor fit] | Potency [7] 0.0037 µM [rising, full curve, poor fit]
inactive: Potency [3] | viability [8] 86.2%

Nc1nc2ccc(OC(F)(F)F)cc2s1
inactive: Potency [4] | Potency [6]
inconclusive: Potency [1] 20.9 µM [cytotoxic, partial curve, poor fit] | Potency [2] 20.9 µM [cytotoxic, partial curve] | Potency [5] 16.6 µM [cytotoxic, partial curve, poor fit] | Potency [7] 18.7 µM [cytotoxic, partial curve, poor fit] | Potency [9] 4.69 µM [cytotoxic, full curve, poor fit] | Potency [8] 11.8 µM [cytotoxic, partial curve, poor fit]
active: Potency [3] 23.5 µM

CC(C)[C@H](CO)Nc1nc(Nc2ccc(C(=O)O)c(Cl)c2)c2ncn(C(C)C)c2n1
inconclusive: Potency [1] 16.6 µM [cytotoxic, partial curve, poor fit] | Potency [2] 8.33 µM [cytotoxic, partial curve, poor fit] | Potency [4] 0.372 µM [cytotoxic, partial curve, poor fit] | Potency [5] 14.8 µM [cytotoxic, partial curve, poor fit] | Potency [7] 37.2 µM [cytotoxic, single point] | viability [8] 42.9% [cytotoxic] | Potency [10] 37.2 µM [cytotoxic, single point]
active: Potency [3] 37.2 µM

C[N+](C)(C)CC(=O)O
inconclusive: Potency [2] 0.003 µM [rising, full curve, poor fit] | Potency [7] 0.0042 µM [rising, full curve] | Potency [9] 2.35 µM [cytotoxic, full curve, poor fit] | Potency [8] 0.0026 µM [rising, full curve]
inactive: Potency [1] | Potency [3] | Potency [4] | Potency [5] | Potency [6] | Potency [10]
